These results are taken from PubChem BioAssay AID493014 (National Center for Advancing Translational Sciences (NCATS), 2011).

Each structure is given as a SMILES string. The list shows a part of the results. Shown are side measurements of this screen, not its main read-out; they come without a call. Compounds called inactive in the main read-out are mostly missing here. The note in brackets gives the kind of curve behind each potency; many fits are weak.

A short description of the test: qHTS Assay to Find Inhibitors of Chronic Active B-Cell Receptor Signaling. Conditions: ABC-DLBCL IkBa-CBG/CBR reporter, luminescence ratio (green luciferase fused to IkBa over red control in TMD8 lymphoma cells), 4 h. The essentials: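 Compounds up to 46 uM were incubated four hours with TMD8 cells whose green CBG68 luciferase is fused to IkappaBalpha; red CBR luminescence normalised the signal, and concentration-effect curves were fitted to fusion, red and ratio data.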
A general note: In qHTS, concentration-response curves come from the screen itself.

Where [1] appears, read: measured here: CBR red luminescence, cell number.
Setting [2] is: measured here: IkBa-CBG green luminescence.

What is called AC50 is the concentration giving half of the maximal activity seen. With `CCNC(=O)CC1SC(=Nc2ccc(Cl)cc2)N(CC)C1=O` (stereo unspecified), under setting [1], the AC50 was 0.58 µM [rising, full curve, poor fit]. On to `Cc1cc(C)cc(NC(=O)[C@H](Cc2c[nH]c3ccccc23)NC(=O)[C@@H]2Cc3ccccc3CN2)c1`, for which, under setting [1], the AC50 is 10 µM [falling, partial curve, poor fit]. On to `c1ccc2c(-n3cccn3)cccc2c1`, for which the AC50 under setting [1] was 35.5 µM [rising, single point].

With `O=C1Nc2ccc(Br)cc2/C1=C/C(=O)c1ccc2c(c1)OCO2`, the AC50 is 4.47 µM [falling, partial curve] under setting [1] and 14.1 µM [rising, partial curve, poor fit] under setting [2]. With `N#Cc1c(C(F)(F)F)cc(-c2cccs2)nc1SCC(=O)O`, the concentration at half-maximal activity (AC50) under setting [1] is 7.94 µM [falling, single point] and the AC50 under setting [2] was 14.1 µM [rising, single point]. `Brc1ccc(-c2nc(-c3ccncc3)no2)cc1`: the AC50 under setting [1] was 8.91 µM [rising, partial curve].

In the case of `COc1ccc(NC(=O)C2CCCN(S(=O)(=O)c3cccc4nonc34)C2)c(OC)c1` (stereo unspecified), under setting [1], the half-maximal activity concentration (AC50) was 6.51 µM [rising, full curve, poor fit]. Same read-out and setting: to `O=C(Nc1ccc(N2CCCCC2)cc1)c1ccc2c(c1)OCCO2` belongs 7.31 µM [falling, partial curve, poor fit].

`CC1=Nc2ccc(C)cc2/C1=C/c1c(N)n2c(S(=O)(=O)C(C)C)nsc2nc1=O`: the AC50 under setting [1] was 7.94 µM [falling, partial curve, poor fit]. Regarding `COc1ccc(CCNC(=O)c2ccn[nH]2)cc1OC`, the AC50 under setting [1] was 35.5 µM [falling, single point]. In the case of `Cc1cc(C(=O)COC(=O)c2n[nH]c(=O)c3ccccc23)c(C)n1C`, under setting [1], the AC50 is 29.1 µM [rising, single point]. In the case of `Cc1cc(N2CCOCC2)nc2ccc(NC(=S)NCc3ccc4c(c3)OCO4)cc12`, the AC50 under setting [1] was 35.5 µM [falling, single point].

For the molecule `CC1=NN(c2cccc(C(=O)O)c2)C(=O)/C1=C\C=C/c1ccccc1`, the AC50 under setting [1] was 6.31 µM [falling, single point]. `O=C(N/N=C/c1cc([N+](=O)[O-])ccc1O)C1C2CCCCC21` (stereo unspecified): the AC50 under setting [1] is 11.2 µM [rising, partial curve, poor fit]. Same read-out and setting: the figure for `CCNC(=S)N/N=C/c1ccc(C(=O)O)cc1` is 35.5 µM [falling, single point]. With `Cc1ccc(-n2ncc3c(N4CCN(Cc5ccccc5)CC4)ncnc32)cc1C`, the AC50 is 4.47 µM [falling, partial curve, poor fit] under setting [1] and 3.16 µM [rising, partial curve, poor fit] under setting [2]. With `COc1cc2c(cc1OC)CN(c1ccc([N+](=O)[O-])cc1Cl)CC2`, under setting [1], the AC50 was 7.31 µM [rising, partial curve, poor fit]. The same measure, in the same setting: to `O=C(N/C(=C/c1ccc(Br)cc1)C(=O)N1CCCC1)c1ccccc1F` belongs 18.4 µM [rising, partial curve, poor fit]; to `COc1cc2c(cc1NC(=O)c1cc(-c3ccncc3)nc3ccc(C)cc13)oc1ccccc12`, 29.1 µM [rising, single point]; to `CCOCCCNC(=O)CCC(=O)NNc1nc2ccccc2c2nc(C)nn12`, 35.5 µM [rising, partial curve, poor fit]. On the same count and under the same terms, the figure for `Cc1ccc(C(=O)N/N=C/c2c[nH]c3ccccc23)o1` is 15.8 µM [falling, single point]; for `O=C(CN1C(=O)NC2(CCc3ccccc32)C1=O)Nc1ccccc1C(F)(F)F` (stereo unspecified) it is 0.411 µM [falling, partial curve, poor fit]. Same read-out and setting: to `Cn1c(CC(=O)Nc2ccccc2)nnc1SCC(=O)Nc1ccc(N2CCOCC2)cc1` belongs 11.2 µM [falling, partial curve, poor fit]; to `CCCCN=C1NN=C(c2ccc(C)c(C)c2)CS1`, 22.4 µM [falling, single point]; to `CC(C)(C)NC(=O)CN(C(=O)CS(=O)CC(=O)Nc1ccc(F)cc1)c1ccc2c(c1)OCCO2` (stereo unspecified), 0.0891 µM [rising, full curve, poor fit]. `COc1cccc(Nc2nc(-c3ccc(O)cc3)cs2)c1`: under setting [1], the AC50 is 3.55 µM [falling, partial curve, poor fit]. On to `CC(C)CN(C(=O)C(c1ccccc1)c1ccccc1)c1c(N)n(CC(C)C)c(=O)[nH]c1=O`, for which the AC50 under setting [1] was 12.6 µM [falling, partial curve]. Take `CC(=O)c1cc2c(cc1NC(=O)c1ccco1)OCCO2`: the AC50 under setting [1] is 0.708 µM [falling, full curve, poor fit]. Turning to `COc1ccc(-n2cnc3cc(C(=O)NCCC4=CCCCC4)ccc32)cc1`, under setting [1], the AC50 was 35.5 µM [rising, single point]. The same measure, in the same setting: the figure for `CCOc1cc(C2NC(=O)NC(C)=C2C(=O)OC(C)CC)cc(Br)c1O` (stereo unspecified) is 4.47 µM [rising, partial curve]; for `Cc1ccc(S(=O)(=O)N(C)C)cc1NC(=O)COC(=O)c1c(C)noc1C` it is 8.2 µM [falling, partial curve]; for `Nc1ncnc2c1ncn2[C@@H]1O[C@H](CNC(=O)[C@@H]2CCN2)[C@@H](O)[C@H]1O` it is 16.4 µM [rising, single point]. As to `C=CCOc1ccc(C2=NOC(C(=O)Nc3ccc4c(c3)OCCO4)C2)cc1OC` (stereo unspecified), the AC50 under setting [1] is 35.5 µM [falling, single point]. On to `CC(C)CCOCC(=O)Nc1cccc(C(=O)O)c1`, for which the AC50 under setting [1] was 10 µM [falling, partial curve]. Consider `Cc1cc2nc(C)n(CCCNC(=O)Nc3ccccc3)c2cc1C`, for which the AC50 under setting [1] is 29.1 µM [rising, single point]. For the molecule `COc1ccccc1CC(=O)O/N=C(\N)c1ccccn1`, the AC50 under setting [1] was 0.562 µM [rising, partial curve, poor fit].

In the case of `CCOC(=O)c1ccc(NC(=O)c2cc(F)c(F)cc2Cl)cc1`, the AC50 under setting [1] was 28.2 µM [rising, single point]. Still for that read-out and setting: the figure for `O=C(N/N=C1\CCCc2ccccc21)c1ccccc1[N+](=O)[O-]` is 6.51 µM [falling, full curve]; for `Cc1ccc(N(CC(=O)NCc2ccco2)C(=O)CCC(=O)Nc2ccccn2)c(C)c1` it is 2.82 µM [falling, partial curve, poor fit]; for `O=c1[nH]n2c(=O)c3c([nH]c2c1N=Nc1ccccc1)CCC3` it is 18.4 µM [falling, single point]. As for `O=C(c1ccco1)N1CCN(C(=O)c2cc3c(s2)-c2ccccc2OC3)CC1`, the AC50 under setting [1] is 29.1 µM [falling, single point]. With `COc1ccc(CN2CCN(C(=O)CC(C)C)CC2)cc1Br`, under setting [1], the AC50 is 35.5 µM [falling, single point]. On the same count and under the same terms, to `COc1ccc(/C=C2/SC(=O)N(CCC(=O)Nc3ccccc3C(=O)O)C2=S)cc1` belongs 1.41 µM [falling, full curve]; to `Cn1cccc1Cc1nnc(SCC(=O)NCc2ccc3c(c2)OCO3)n1CCc1ccccc1`, 18.4 µM [falling, partial curve, poor fit]. Same read-out and setting: the figure for `CCCN(CCC)C(=O)CSc1nc2ccccc2c(=O)n1C1CCCC1` is 23.1 µM [falling, single point]; for `C/C(=N\NC(=O)c1cccc(N/N=C(\C)c2ccccc2)c1)c1ccccc1` it is 7.31 µM [falling, partial curve]; for `CC(=O)Nc1ccc(NC(=O)CSc2nc3ccccc3c(=O)n2CCCN2CCOCC2)cc1` it is 5.8 µM [rising, full curve]. As to `Cc1cccc(CSc2nc3c(c(=O)n2C)SCC3)c1`, the AC50 under setting [1] was 12.6 µM [falling, single point]. Still for that read-out and setting: the figure for `O=C(COC(=O)c1cnccn1)Nc1ccc2c(c1)OCO2` is 0.651 µM [rising, full curve, poor fit]; for `Cc1nn(CC(=O)Nc2nnc(C(C)C)s2)c(=O)c2ccccc12` it is 7.08 µM [rising, partial curve, poor fit]; for `Cc1ccc(-n2c(C)cc(/C=C(\C#N)C(=O)NCC3CCCO3)c2C)cc1` (stereo unspecified) it is 3.16 µM [rising, single point]. Regarding `c1ccc(-c2nc(NCc3ccco3)c3ccccc3n2)nc1`, the AC50 under setting [1] is 35.5 µM [falling, partial curve, poor fit]. For the molecule `COc1ccc(C(=O)O/N=C(/c2ccccc2)c2ccncc2)cc1`, the AC50 was 11.2 µM [falling, partial curve] under setting [1] and 22.4 µM [falling, single point] under setting [2]. Turning to `CCOc1ccc2nc(NCCCNS(=O)(=O)c3ccc(C)cc3)c(C#N)cc2c1`, the AC50 under setting [1] was 18.4 µM [rising, partial curve, poor fit]. With `CC1CCCN(S(=O)(=O)c2ccc3c(c2)C(C)(C)C(=O)N3C)C1` (stereo unspecified), the AC50 under setting [1] was 3.55 µM [rising, single point]. Take `Cc1cc2nc(-c3ccc[nH]c3=O)n(Cc3ccc(F)cc3)c2cc1C`: the AC50 under setting [1] is 6.31 µM [falling, full curve, poor fit]. On the same count and under the same terms, to `COc1cccc(CNC(=O)c2ccc(C3SCCS3)cc2)c1` belongs 5.62 µM [falling, partial curve]; to `Cc1ccc2nc(NC(=O)C3CCCN(S(=O)(=O)c4cccc5nonc45)C3)sc2c1` (stereo unspecified), 0.631 µM [falling, full curve, poor fit]; to `O=C1C=C(c2ccc(O)cc2)C[C@@H](c2ccc(Cl)cc2)C1`, 20.6 µM [falling, single point]. The same measure, in the same setting: to `c1ccc2[nH]c3cc4ncnc4cc3nc2c1` belongs 7.31 µM [falling, partial curve].

For `COc1cc(-c2ccc3oc(-c4ccsc4)cc(=O)c3c2)cc(OC)c1OC`, the AC50 under setting [1] is 20.6 µM [falling, partial curve, poor fit]. On to `Cc1ccc(S(=O)(=O)c2nc(-c3ccccc3)oc2NCCN2CCOCC2)cc1`, for which, under setting [1], the AC50 was 0.517 µM [falling, partial curve, poor fit].
